Tested on: monkey platelet aggregation
Assay: Inhibitory effect on monkey platelet aggregation after transdermal administration
Assay type: in vivo
Conditions: cynomolgus monkeys, transdermal daily for four weeks (70 mg/kg; comparator 60 mg/kg), inducer 1 mM arachidonic acid
Protocol: The dose volume for a monkey was calculated based on its weight. The hair on the monkey's back was shaved, and the drug was evenly applied to the bare skin. The drug was administered continuously every day for four weeks. Blank blood was collected before administration, and blood was collected once a week after administration to detect the platelet aggregation ability (the inducer was 1 mM arachidonic acid).

In the case of `CCN(CC)C(=O)COC(=O)c1ccccc1OC(C)=O`, the “inhibitory effect on platelet aggregation” value is reported as “significant inhibitory effect” and the platelet aggregation rate is reported as “decreased significantly since the second week”.
